Drawing on article PMC5871684, this text covers binding for 2 molecules.

No constants are given. Whether binding was seen depends on the method and setting. Some entries that bind do so weakly or less than the wild type. Where a sequence is shown, tags or fusion partners need not be part of it.

The target of this assay is T1, TOPLESS (TPL) fused with GAL4 DNA binding domain (Arabidopsis thaliana) (UniProt Q94AI7).
T1 sequence: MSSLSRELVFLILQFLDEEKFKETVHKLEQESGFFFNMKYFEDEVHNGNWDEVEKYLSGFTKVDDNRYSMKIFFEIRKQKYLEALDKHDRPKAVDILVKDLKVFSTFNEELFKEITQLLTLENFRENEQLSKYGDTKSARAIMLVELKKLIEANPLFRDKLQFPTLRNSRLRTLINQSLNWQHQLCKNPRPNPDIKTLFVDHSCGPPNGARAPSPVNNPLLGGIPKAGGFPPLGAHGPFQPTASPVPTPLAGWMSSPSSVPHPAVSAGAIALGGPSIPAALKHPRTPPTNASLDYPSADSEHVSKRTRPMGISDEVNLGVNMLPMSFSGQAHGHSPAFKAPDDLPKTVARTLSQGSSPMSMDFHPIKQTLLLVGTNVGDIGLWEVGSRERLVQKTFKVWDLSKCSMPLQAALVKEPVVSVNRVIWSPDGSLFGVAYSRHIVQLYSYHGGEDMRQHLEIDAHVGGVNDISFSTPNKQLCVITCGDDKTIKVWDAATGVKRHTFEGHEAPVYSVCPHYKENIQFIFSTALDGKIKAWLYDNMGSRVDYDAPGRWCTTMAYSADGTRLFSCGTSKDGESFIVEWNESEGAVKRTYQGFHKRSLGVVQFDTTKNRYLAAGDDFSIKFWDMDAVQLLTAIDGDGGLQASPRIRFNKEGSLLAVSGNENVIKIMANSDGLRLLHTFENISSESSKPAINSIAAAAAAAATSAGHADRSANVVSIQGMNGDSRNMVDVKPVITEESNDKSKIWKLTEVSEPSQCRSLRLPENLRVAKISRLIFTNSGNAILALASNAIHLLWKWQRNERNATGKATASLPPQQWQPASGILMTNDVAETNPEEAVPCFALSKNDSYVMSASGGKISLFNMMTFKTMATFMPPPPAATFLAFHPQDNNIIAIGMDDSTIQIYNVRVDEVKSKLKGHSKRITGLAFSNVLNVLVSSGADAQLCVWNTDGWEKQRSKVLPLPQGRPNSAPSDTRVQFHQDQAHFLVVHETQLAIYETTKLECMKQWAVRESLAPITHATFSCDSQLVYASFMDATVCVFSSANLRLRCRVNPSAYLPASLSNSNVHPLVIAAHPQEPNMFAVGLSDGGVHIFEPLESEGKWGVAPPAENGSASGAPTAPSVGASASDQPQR
The assay can be described thus: two-hybrid; Matchmaker system, yeast AH109, co-transformation; TPL fused with GAL4-BD, ARF2 full length, domains or mutated MDs fused with GAL4-AD; serial 1:10 dilutions on SD2-, SD3- (0.2-0.5 mM 3-amino-triazole) or SD4-, 30°C, growth observed 4-10 days after plating.

B1: ARF2 PB1 domain fused with GAL4 activation domain (domain or fragment, UniProt Q94JM3 733-817)
chain: RSCTKVHKQGIALGRSVDLSKFQNYEELVAELDRLFEFNGELMAPKKDWLIVYTDEENDMMLVGDDPWQEFCCMVRKIFIYTKEE
B1: the binding entry is listed as “no binding”.

B2: ARF2 full length fused with GAL4 activation domain (protein, UniProt Q94JM3 1-859)
chain: MASSEVSMKGNRGGDNFSSSGFSDPKETRNVSVAGEGQKSNSTRSAAAERALDPEAALYRELWHACAGPLVTVPRQDDRVFYFPQGHIEQVEASTNQAAEQQMPLYDLPSKLLCRVINVDLKAEADTDEVYAQITLLPEANQDENAIEKEAPLPPPPRFQVHSFCKTLTASDTSTHGGFSVLRRHADECLPPLDMSRQPPTQELVAKDLHANEWRFRHIFRGQPRRHLLQSGWSVFVSSKRLVAGDAFIFLRGENGELRVGVRRAMRQQGNVPSSVISSHSMHLGVLATAWHAISTGTMFTVYYKPRTSPSEFIVPFDQYMESVKNNYSIGMRFKMRFEGEEAPEQRFTGTIVGIEESDPTRWPKSKWRSLKVRWDETSSIPRPDRVSPWKVEPALAPPALSPVPMPRPKRPRSNIAPSSPDSSMLTREGTTKANMDPLPASGLSRVLQGQEYSTLRTKHTESVECDAPENSVVWQSSADDDKVDVVSGSRRYGSENWMSSARHEPTYTDLLSGFGTNIDPSHGQRIPFYDHSSSPSMPAKRILSDSEGKFDYLANQWQMIHSGLSLKLHESPKVPAATDASLQGRCNVKYSEYPVLNGLSTENAGGNWPIRPRALNYYEEVVNAQAQAQAREQVTKQPFTIQEETAKSREGNCRLFGIPLTNNMNGTDSTMSQRNNLNDAAGLTQIASPKVQDLSDQSKGSKSTNDHREQGRPFQTNNPHPKDAQTKTNSSRSCTKVHKQGIALGRSVDLSKFQNYEELVAELDRLFEFNGELMAPKKDWLIVYTDEENDMMLVGDDPWQEFCCMVRKIFIYTKEEVRKMNPGTLSCRSEEEAVVGEGSDAKDAKSASNPSLSSAGNS
With B2, the binding entry is recorded as “binds”.
